Data: US20160289285A1
Changes are numbered by the printed parent chain. These are yes or no findings as the source states them, for the method shown. Some entries that bind do so weakly or less than the wild type.

Amino acid sequences for entries named in this document (tags omitted). A change or cut given only in a name is not applied to a line headed by its entry. Chains listed by the source or under a name are the forms on record and can include a tag or linker.
cynomolgus monkey HGF (C9E9X5, form named): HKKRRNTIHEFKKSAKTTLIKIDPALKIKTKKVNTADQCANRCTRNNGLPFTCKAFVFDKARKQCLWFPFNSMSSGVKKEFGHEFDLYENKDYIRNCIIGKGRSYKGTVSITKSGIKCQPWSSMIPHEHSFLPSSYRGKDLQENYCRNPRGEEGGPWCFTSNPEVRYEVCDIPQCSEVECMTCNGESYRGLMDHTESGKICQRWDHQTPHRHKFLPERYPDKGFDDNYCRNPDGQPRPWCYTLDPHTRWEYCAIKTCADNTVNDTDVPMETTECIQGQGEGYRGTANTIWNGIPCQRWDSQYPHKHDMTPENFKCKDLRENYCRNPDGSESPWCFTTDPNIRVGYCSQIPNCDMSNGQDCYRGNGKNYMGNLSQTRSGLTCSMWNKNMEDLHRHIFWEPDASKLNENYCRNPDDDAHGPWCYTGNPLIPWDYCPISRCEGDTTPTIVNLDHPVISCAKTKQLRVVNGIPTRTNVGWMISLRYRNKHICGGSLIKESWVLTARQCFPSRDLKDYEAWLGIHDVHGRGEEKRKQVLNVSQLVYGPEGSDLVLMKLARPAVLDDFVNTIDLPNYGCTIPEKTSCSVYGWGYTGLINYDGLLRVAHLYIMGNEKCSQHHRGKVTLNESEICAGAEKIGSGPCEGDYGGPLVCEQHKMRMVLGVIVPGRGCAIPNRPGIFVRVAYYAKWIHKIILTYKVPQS
rat VEGF-A (P16612, form named): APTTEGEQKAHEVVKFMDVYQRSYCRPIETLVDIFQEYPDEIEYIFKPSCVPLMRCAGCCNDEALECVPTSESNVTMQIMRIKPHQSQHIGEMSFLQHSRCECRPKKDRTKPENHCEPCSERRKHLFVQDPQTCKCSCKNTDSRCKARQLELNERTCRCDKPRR

Experiments:
[1] = molecular target: cynomolgus monkey HGF (cynomolgus monkey) (UniProt C9E9X5); experiment: ELISA (FIG. 6B)
[2] = molecular target: cynomolgus monkey HGF (cynomolgus monkey) (UniProt C9E9X5); experiment: ELISA, immobilised target
mouse VEGF-A (mouse) [3] = molecular target: T1, mouse VEGF-A (mouse) (UniProt Q00731); experiment: ELISA, immobilised target
T1 sequence (looked up): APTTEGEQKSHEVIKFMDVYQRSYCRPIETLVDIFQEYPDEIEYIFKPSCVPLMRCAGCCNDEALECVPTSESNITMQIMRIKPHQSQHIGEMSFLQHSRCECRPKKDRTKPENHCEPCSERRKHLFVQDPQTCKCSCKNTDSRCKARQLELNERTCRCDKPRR

rat VEGF-A (rat) [4] = molecular target: T2, rat VEGF-A (rat) (UniProt P16612); experiment: ELISA, immobilised target
T2 sequence (looked up): T1 sequence (looked up) with S10A, I14V, I75V

mouse VEGF-A (mouse) [5] = molecular target: T1, mouse VEGF-A (mouse); experiment: ELISA (FIG. 6A)
rat VEGF-A (rat) [6] = molecular target: T2, rat VEGF-A (rat); experiment: ELISA (FIG. 6A)

binding [1]: binds
binding [2]: binds
binding (mouse VEGF-A (mouse) [3]): binds
binding (rat VEGF-A (rat) [4]): binds
binding (mouse VEGF-A (mouse) [5]): binds
binding (rat VEGF-A (rat) [6]): binds
B1: Protein #134 (designed binder)
chain: GSDLGKKLLEAARAGQDDEVRELLKAGADVNAKDYFSHTPLHLAARNGHLKIVEVLLKAGADVNAKDFAGKTPLHLAANEGHLEIVEVLLKAGADVNAQDIFGKTPADIAADAGHEDIAEVLQKAAGSPTPTPTTPTPTPTTPTPTPTGSDLGKKLLEAARAGQDDEVRILLKAGADVNAKDRYGDTPLHLAADIGHLEIVEVLLKAGADVNAEDYFGNTPLHLAASYGHLEIVEVLLKAGADVNAKDDYGNTPLHLAANTGHLEIVEVLLKAGADVNAQDKSGKTPADLAADAGHEDIAEVLQKAAGSPTPTPTTPTPTPTTPTPTPTGSDLDKKLLEAARAGQDDEVRILLKAGADVNAKDSTGWTPLHLAAPWGHPEIVEVLLKAGADVNAKDFQGWTPLHLAAAAGHLEIVEVLLKAGADVNAQDKSGKTPADLAADAGHEDIAEVLQKAAGSPTPTPTTPTPTPTTPTPTPTGSDLGKKLLEAARAGQDDEVRELLKAGADVNAKDYFSHTPLHLAARNGHLKIVEVLLKAGADVNAKDFAGKTPLHLAANEGHLEIVEVLLKAGADVNAQDIFGKTPADIAADAGHEDIAEVLQKAA
